Experiment: Extractables from cured films (HPLC-MS)
Conditions: 50 μm cured film, 60° C. for 10 days
[1] = Extraction Solvent Acetonitrile

Structure (SMILES)	Concentrations of extractables (ppm) Mesitaldehyde [1] [ppm]	Concentrations of extractables (ppm) Mesitaldehyde (Extraction Solvent Ethanol) [ppm]
Cc1cc(C)c(C(=O)P(=O)(c2ccccc2)c2ccccc2)c(C)c1 [SpeedCure TPO, 2,4,6-trimethylbenzoyl diphenyl phosphine oxide]	293	316
Cc1cc(C)c(C(=O)P(=O)(C(=O)c2c(C)cc(C)cc2C)c2ccccc2)c(C)c1 [Speedcure BPO, bis-(2,4,6-trimethylbenzoyl)phenyl phosphine oxide]	713	656
CCOP(=O)(C(=O)c1c(C)cc(C)cc1C)c1ccccc1 (stereo not drawn) [Speedcure TPO-L, Ethyl (2,4,6-trimethylbenzoyl)phenyl phosphinate]	396	413
